Assay results taken from PMC4604685.
No constants are given. Whether binding was seen depends on the method and setting. In cells and extracts the contact can be indirect.

Chains of the proteins cited; added tags and fusions are not shown.
UniProt P04797: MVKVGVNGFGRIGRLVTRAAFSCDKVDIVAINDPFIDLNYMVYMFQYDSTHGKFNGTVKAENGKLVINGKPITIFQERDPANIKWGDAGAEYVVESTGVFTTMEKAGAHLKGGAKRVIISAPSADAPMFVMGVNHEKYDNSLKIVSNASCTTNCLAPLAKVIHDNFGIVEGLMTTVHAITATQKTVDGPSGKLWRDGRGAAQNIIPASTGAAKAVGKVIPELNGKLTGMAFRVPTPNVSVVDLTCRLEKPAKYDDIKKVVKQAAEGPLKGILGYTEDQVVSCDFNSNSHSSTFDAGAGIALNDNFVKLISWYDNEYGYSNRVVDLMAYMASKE

Target: glyceraldehyde-3-phosphate dehydrogenase (GAPDH), endogenous in PC12 cells (rat (endogenous in PC12)) (UniProt P04797)
Assay: co-IP; immunoprecipitation of GAPDH from total lysates of PC12 cells expressing Q74, RIPA buffer without detergent (Triton X-100); blots for organelle marker proteins

binding: no binding
B1: calnexin (protein, UniProt P35565 21-591)
chain: HDGHDDDMIDIEDDLDDVIEEVEDSKSKSDTSTPPSPKVTYKAPVPTGEVYFADSFDRGSLSGWILSKAKKDDTDDEIAKYDGKWEVDEMKETKLPGDKGLVLMSRAKHHAISAKLNKPFLFDTKPLIVQYEVNFQNGIECGGAYVKLLSKTSELNLDQFHDKTPYTIMFGPDKCGEDYKLHFIFRHKNPKTGVYEEKHAKRPDADLKTYFTDKKTHLYTLILNPDNSFEILVDQSVVNSGNLLNDMTPPVNPSREIEDPEDRKPEDWDERPKIADPDAVKPDDWDEDAPSKIPDEEATKPEGWLDDEPEYIPDPDAEKPEDWDEDMDGEWEAPQIANPKCESAPGCGVWQRPMIDNPNYKGKWKPPMIDNPNYQGIWKPRKIPNPDFFEDLEPFRMTPFSAIGLELWSMTSDIFFDNFIISGDRRVVDDWANDGWGLKKAADGAAEPGVVGQMLEAAEERPWLWVVYILTVALPVFLVILFCCSGKKQSNAMEYKKTDAPQPDVKDEEGKEEEKNKGDEEEEEEKLEEKQKSDAEEDGGTGSQDEEDSKPKAEEDEILNRSPRNRKPRRE
